The record followed here is article PMC9587022 (2022).

Sequences of proteins named here, by UniProt entry; tags and fusion partners are left off.
UniProt P16788: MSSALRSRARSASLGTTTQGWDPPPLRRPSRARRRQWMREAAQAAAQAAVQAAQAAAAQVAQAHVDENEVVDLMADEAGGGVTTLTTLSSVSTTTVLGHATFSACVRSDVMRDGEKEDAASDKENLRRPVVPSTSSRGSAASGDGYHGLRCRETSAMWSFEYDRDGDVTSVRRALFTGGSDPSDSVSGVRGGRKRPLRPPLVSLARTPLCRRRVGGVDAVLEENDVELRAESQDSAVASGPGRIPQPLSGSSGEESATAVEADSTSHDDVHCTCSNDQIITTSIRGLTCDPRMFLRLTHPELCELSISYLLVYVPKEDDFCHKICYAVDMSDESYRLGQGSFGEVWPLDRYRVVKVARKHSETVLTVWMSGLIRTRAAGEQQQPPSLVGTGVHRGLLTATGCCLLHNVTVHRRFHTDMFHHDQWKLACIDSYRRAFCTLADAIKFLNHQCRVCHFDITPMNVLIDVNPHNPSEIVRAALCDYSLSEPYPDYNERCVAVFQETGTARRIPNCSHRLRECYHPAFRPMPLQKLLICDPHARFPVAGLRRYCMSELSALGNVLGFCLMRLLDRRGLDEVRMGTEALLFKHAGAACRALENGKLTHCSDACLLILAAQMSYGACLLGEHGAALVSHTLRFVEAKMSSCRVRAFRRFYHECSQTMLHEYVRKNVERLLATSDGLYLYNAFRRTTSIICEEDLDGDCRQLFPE
UniProt P31946: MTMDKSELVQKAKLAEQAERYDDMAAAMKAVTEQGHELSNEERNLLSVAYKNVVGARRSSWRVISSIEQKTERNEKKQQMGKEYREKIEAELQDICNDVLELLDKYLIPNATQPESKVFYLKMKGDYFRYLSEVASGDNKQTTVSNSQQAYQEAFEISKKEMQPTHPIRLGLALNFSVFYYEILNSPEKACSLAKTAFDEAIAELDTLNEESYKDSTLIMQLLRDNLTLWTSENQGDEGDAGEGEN
UniProt P62258: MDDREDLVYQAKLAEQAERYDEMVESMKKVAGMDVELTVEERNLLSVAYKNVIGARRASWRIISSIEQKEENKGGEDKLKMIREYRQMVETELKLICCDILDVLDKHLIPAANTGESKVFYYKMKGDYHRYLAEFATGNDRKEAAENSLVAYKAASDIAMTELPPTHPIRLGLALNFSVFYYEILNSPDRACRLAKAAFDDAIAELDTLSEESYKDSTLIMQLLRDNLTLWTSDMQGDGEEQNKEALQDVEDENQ
UniProt Q12834: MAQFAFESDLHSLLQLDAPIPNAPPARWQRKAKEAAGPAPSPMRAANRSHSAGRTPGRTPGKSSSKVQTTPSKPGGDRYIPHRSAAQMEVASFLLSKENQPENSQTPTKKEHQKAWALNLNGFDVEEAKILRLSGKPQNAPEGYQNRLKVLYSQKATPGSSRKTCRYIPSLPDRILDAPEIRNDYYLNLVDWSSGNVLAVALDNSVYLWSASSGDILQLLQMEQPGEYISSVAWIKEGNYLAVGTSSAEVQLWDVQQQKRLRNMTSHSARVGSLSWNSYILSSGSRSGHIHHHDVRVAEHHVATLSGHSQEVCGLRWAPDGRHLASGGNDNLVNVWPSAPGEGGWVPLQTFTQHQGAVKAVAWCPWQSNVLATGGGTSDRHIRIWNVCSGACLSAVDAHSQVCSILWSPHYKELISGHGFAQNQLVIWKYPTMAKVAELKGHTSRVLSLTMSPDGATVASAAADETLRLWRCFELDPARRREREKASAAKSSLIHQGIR
UniProt P20248: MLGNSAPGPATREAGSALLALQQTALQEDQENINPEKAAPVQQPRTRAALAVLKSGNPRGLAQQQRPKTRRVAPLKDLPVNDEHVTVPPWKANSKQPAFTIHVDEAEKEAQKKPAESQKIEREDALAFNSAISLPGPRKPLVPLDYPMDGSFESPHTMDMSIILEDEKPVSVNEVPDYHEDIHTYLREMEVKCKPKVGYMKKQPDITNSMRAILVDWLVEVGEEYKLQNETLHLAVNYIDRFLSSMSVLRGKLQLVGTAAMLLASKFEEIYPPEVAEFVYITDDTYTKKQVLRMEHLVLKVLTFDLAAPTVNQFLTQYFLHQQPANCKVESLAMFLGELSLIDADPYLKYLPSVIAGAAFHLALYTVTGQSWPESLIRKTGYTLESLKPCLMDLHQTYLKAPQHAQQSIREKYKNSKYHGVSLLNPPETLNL
UniProt Q92598: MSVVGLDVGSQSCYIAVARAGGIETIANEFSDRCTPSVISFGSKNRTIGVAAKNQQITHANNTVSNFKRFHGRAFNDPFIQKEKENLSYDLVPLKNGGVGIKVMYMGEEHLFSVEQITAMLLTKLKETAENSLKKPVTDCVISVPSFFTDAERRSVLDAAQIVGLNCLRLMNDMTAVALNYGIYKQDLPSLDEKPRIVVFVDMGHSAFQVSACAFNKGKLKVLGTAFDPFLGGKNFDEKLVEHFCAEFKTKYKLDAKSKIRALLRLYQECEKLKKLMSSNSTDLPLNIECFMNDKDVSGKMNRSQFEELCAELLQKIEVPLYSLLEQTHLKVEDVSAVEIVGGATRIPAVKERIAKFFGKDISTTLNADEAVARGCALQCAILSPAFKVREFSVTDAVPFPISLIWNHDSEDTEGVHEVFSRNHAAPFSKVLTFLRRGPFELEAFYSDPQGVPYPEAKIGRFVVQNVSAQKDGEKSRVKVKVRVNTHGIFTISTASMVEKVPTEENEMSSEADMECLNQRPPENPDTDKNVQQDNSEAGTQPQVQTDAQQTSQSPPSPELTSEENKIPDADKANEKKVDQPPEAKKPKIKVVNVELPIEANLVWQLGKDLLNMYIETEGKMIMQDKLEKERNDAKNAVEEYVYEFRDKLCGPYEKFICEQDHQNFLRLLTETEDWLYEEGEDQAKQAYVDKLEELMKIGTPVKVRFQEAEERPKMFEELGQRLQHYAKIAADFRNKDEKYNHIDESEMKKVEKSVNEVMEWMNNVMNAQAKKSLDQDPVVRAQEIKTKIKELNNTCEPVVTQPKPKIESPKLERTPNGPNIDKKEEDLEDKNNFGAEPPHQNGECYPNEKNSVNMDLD
UniProt P60660: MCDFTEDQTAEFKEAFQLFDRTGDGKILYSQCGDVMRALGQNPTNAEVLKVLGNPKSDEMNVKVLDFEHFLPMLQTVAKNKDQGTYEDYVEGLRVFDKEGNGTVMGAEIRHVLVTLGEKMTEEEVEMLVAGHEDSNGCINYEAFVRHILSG
UniProt Q93008: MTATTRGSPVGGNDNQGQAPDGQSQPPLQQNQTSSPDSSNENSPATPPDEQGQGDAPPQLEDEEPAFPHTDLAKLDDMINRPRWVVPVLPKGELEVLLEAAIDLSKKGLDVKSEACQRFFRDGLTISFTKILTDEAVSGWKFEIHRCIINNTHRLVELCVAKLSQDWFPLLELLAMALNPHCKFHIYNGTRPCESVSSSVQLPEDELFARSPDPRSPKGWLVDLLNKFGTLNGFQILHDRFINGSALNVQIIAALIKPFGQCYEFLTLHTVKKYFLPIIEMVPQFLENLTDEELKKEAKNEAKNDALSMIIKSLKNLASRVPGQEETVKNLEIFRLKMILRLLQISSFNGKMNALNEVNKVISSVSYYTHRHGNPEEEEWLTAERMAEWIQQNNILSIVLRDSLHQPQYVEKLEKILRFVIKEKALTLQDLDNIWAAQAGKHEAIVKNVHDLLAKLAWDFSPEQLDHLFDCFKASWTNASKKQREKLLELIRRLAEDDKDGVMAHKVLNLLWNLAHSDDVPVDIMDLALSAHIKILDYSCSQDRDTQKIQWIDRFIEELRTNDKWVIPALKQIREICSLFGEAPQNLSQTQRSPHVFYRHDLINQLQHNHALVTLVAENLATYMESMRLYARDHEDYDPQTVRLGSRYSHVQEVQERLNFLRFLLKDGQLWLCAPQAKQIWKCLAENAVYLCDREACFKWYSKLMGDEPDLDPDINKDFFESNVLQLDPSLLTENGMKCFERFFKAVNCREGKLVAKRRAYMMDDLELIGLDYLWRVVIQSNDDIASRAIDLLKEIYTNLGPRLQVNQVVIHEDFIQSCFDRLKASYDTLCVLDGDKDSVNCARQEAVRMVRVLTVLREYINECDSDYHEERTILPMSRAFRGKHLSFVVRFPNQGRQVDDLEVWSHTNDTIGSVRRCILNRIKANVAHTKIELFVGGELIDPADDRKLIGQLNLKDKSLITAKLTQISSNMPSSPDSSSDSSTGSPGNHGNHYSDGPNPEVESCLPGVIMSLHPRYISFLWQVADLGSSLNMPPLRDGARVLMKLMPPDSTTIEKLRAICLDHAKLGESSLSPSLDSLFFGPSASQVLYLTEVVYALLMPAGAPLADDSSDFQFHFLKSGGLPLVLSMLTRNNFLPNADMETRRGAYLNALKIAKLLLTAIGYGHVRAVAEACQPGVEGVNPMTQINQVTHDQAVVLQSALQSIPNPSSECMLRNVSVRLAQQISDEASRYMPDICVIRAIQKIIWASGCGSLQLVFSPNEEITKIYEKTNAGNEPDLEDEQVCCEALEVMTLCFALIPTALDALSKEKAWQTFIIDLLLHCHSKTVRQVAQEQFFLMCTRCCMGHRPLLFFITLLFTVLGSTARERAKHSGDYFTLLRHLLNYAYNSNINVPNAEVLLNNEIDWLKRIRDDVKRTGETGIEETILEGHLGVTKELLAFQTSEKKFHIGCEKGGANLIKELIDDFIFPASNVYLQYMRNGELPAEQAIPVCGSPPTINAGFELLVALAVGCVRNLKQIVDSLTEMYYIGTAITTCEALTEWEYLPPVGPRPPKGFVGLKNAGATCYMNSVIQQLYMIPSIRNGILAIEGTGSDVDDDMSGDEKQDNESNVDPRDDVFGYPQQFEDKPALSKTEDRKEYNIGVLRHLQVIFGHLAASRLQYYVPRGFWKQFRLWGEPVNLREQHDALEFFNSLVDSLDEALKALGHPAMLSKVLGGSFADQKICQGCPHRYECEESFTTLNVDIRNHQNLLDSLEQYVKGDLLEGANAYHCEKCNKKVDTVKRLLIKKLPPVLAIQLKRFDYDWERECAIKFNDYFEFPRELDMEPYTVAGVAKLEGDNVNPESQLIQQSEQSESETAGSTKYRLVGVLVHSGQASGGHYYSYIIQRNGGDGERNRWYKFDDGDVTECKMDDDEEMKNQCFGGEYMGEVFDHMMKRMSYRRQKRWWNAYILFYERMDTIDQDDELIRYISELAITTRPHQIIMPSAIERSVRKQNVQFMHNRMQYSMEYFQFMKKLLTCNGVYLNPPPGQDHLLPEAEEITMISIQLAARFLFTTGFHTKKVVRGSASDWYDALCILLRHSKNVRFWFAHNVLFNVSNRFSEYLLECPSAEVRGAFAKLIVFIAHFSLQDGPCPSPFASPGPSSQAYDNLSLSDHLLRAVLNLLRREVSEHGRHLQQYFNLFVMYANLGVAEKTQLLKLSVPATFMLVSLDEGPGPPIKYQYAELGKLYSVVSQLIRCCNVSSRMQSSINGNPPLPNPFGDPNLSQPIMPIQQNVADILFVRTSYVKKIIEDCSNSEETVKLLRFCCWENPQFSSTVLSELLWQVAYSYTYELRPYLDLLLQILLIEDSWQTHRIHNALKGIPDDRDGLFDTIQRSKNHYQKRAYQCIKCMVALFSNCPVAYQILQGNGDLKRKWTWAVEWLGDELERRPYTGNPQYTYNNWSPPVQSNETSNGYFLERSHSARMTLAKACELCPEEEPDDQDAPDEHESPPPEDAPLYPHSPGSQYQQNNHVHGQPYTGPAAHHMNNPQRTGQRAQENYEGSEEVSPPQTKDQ
UniProt Q13263: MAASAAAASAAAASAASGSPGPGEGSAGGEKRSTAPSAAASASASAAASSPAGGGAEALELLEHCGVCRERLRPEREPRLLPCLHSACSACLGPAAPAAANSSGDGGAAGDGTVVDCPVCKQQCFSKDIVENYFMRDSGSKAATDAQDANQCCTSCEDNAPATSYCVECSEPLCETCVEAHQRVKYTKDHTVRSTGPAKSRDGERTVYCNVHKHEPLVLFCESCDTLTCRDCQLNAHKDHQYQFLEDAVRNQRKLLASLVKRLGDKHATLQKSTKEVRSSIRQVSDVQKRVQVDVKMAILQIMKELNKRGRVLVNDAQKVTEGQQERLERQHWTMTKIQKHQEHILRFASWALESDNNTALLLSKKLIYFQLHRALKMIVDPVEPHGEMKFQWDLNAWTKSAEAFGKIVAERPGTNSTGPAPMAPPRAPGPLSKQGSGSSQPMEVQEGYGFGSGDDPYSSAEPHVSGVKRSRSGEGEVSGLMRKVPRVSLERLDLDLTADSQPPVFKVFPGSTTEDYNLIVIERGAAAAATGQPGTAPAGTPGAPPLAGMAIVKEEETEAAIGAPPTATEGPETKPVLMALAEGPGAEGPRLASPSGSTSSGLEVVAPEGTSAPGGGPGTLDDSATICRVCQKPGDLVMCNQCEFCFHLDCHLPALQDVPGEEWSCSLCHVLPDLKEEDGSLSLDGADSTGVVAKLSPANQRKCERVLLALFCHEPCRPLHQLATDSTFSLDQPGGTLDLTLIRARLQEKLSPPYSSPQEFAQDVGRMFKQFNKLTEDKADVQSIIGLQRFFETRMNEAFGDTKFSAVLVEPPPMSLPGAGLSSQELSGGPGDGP

B1: mRNA export factor (protein, UniProt P78406 1-368)
chain: MSLFGTTSGFGTSGTSMFGSATTDNHNPMKDIEVTSSPDDSIGCLSFSPPTLPGNFLIAGSWANDVRCWEVQDSGQTIPKAQQMHTGPVLDVCWSDDGSKVFTASCDKTAKMWDLSSNQAIQIAQHDAPVKTIHWIKAPNYSCVMTGSWDKTLKFWDTRSSNPMMVLQLPERCYCADVIYPMAVVATAERGLIVYQLENQPSEFRRIESPLKHQHRCVAIFKDKQNKPTGFALGSIEGRVAIHYINPPNPAKDNFTFKCHRSNGTNTSAPQDIYAVNGIAFHPVHGTLATVGSDGRFSFWDKDARTKLKTSEQLDQPISACCFNHNGNIFAYASSYDWSKGHEFYNPQKKNYIFLRNAAEELKPRNKK
B2: Non-POU domain-containing octamer-binding protein (protein, UniProt Q15233 1-471)
chain: MQSNKTFNLEKQNHTPRKHHQHHHQQQHHQQQQQQPPPPPIPANGQQASSQNEGLTIDLKNFRKPGEKTFTQRSRLFVGNLPPDITEEEMRKLFEKYGKAGEVFIHKDKGFGFIRLETRTLAEIAKVELDNMPLRGKQLRVRFACHSASLTVRNLPQYVSNELLEEAFSVFGQVERAVVIVDDRGRPSGKGIVEFSGKPAARKALDRCSEGSFLLTTFPRPVTVEPMDQLDDEEGLPEKLVIKNQQFHKEREQPPRFAQPGSFEYEYAMRWKALIEMEKQQQDQVDRNIKEAREKLEMEMEAARHEHQVMLMRQDLMRRQEELRRMEELHNQEVQKRKQLELRQEEERRRREEEMRRQQEEMMRRQQEGFKGTFPDAREQEIRMGQMAMGGAMGINNRGAMPPAPVPAGTPAPPGPATMMPDGTLGLTPPTTERFGQAATMEGIGAIGGTPPAFNRAAPGAEFAPNKRRRY
B3: Heat shock protein 75 kDa, mitochondrial (protein, UniProt Q12931 60-704)
chain: STQTAEDKEEPLHSIISSTESVQGSTSKHEFQAETKKLLDIVARSLYSEKEVFIRELISNASDALEKLRHKLVSDGQALPEMEIHLQTNAEKGTITIQDTGIGMTQEELVSNLGTIARSGSKAFLDALQNQAEASSKIIGQFGVGFYSAFMVADRVEVYSRSAAPGSLGYQWLSDGSGVFEIAEASGVRTGTKIIIHLKSDCKEFSSEARVRDVVTKYSNFVSFPLYLNGRRMNTLQAIWMMDPKDVREWQHEEFYRYVAQAHDKPRYTLHYKTDAPLNIRSIFYVPDMKPSMFDVSRELGSSVALYSRKVLIQTKATDILPKWLRFIRGVVDSEDIPLNLSRELLQESALIRKLRDVLQQRLIKFFIDQSKKDAEKYAKFFEDYGLFMREGIVTATEQEVKEDIAKLLRYESSALPSGQLTSLSEYASRMRAGTRNIYYLCAPNRHLAEHSPYYEAMKKKDTEVLFCFEQFDELTLLHLREFDKKKLISVETDIVVDHYKEEKFEDRSPAAECLSEKETEELMAWMRNVLGSRVTNVKVTLRLDTHPAMVTVLEMGAARHFLRMQQLAKTQEERAQLLQPTLEINPRHALIKKLNQLRASEPGLAQLLVDQIYENAMIAAGLVDDPRAMVGRLNELLVKALERH
B4: 14-3-3 protein gamma, endogenous (protein, UniProt P61981 1-247)
chain: MVDREQLVQKARLAEQAERYDDMAAAMKNVTELNEPLSNEERNLLSVAYKNVVGARRSSWRVISSIEQKTSADGNEKKIEMVRAYREKIEKELEAVCQDVLSLLDNYLIKNCSETQYESKVFYLKMKGDYYRYLAEVATGEKRATVVESSEKAYSEAHEISKEHMQPTHPIRLGLALNYSVFYYEIQNAPEQACHLAKTAFDDAIAELDTLNEDSYKDSTLIMQLLRDNLTLWTSDQQDDDGGEGNN
B5: Protein disulfide-isomerase A6 (protein, UniProt Q15084 20-440)
chain: LYSSSDDVIELTPSNFNREVIQSDSLWLVEFYAPWCGHCQRLTPEWKKAATALKDVVKVGAVDADKHHSLGGQYGVQGFPTIKIFGSNKNRPEDYQGGRTGEAIVDAALSALRQLVKDRLGGRSGGYSSGKQGRSDSSSKKDVIELTDDSFDKNVLDSEDVWMVEFYAPWCGHCKNLEPEWAAAASEVKEQTKGKVKLAAVDATVNQVLASRYGIRGFPTIKIFQKGESPVDYDGGRTRSDIVSRALDLFSDNAPPPELLEIINEDIAKRTCEEHQLCVVAVLPHILDTGAAGRNSYLEVLLKLADKYKKKMWGWLWTEAGAQSELETALGIGGFGYPAMAAINARKMKFALLKGSFSEQGINEFLRELSFGRGSTAPVGGGAFPTIVEREPWDGRDGELPVEDDIDLSDVELDDLGKDEL
B6: Stromal cell-derived factor 2-like protein 1 (protein, UniProt Q9HCN8 29-221)
chain: AKTGAELVTCGSVLKLLNTHHRVRLHSHDIKYGSGSGQQSVTGVEASDDANSYWRIRGGSEGGCPRGSPVRCGQAVRLTHVLTGKNLHTHHFPSPLSNNQEVSAFGEDGEGDDLDLWTVRCSGQHWEREAAVRFQHVGTSVFLSVTGEQYGSPIRGQHEVHGMPSANTHNTWKAMEGIFIKPSVEPSAGHDEL
B7: Neutral alpha-glucosidase AB (protein, UniProt Q14697 29-944)
chain: ITLAVDRSNFKTCEESSFCKRQRSIRPGLSPYRALLDSLQLGPDSLTVHLIHEVTKVLLVLELQGLQKNMTRFRIDELEPRRPRYRVPDVLVADPPIARLSVSGRDENSVELTMAEGPYKIILTARPFRLDLLEDRSLLLSVNARGLLEFEHQRAPRVSQGSKDPAEGDGAQPEETPRDGDKPEETQGKAEKDEPGAWEETFKTHSDSKPYGPMSVGLDFSLPGMEHVYGIPEHADNLRLKVTEGGEPYRLYNLDVFQYELYNPMALYGSVPVLLAHNPHRDLGIFWLNAAETWVDISSNTAGKTLFGKMMDYLQGSGETPQTDVRWMSETGIIDVFLLLGPSISDVFRQYASLTGTQALPPLFSLGYHQSRWNYRDEADVLEVDQGFDDHNLPCDVIWLDIEHADGKRYFTWDPSRFPQPRTMLERLASKRRKLVAIVDPHIKVDSGYRVHEELRNLGLYVKTRDGSDYEGWCWPGSAGYPDFTNPTMRAWWANMFSYDNYEGSAPNLFVWNDMNEPSVFNGPEVTMLKDAQHYGGWEHRDVHNIYGLYVHMATADGLRQRSGGMERPFVLARAFFAGSQRFGAVWTGDNTAEWDHLKISIPMCLSLGLVGLSFCGADVGGFFKNPEPELLVRWYQMGAYQPFFRAHAHLDTGRREPWLLPSQHNDIIRDALGQRYSLLPFWYTLLYQAHREGIPVMRPLWVQYPQDVTTFNIDDQYLLGDALLVHPVSDSGAHGVQVYLPGQGEVWYDIQSYQKHHGPQTLYLPVTLSSIPVFQRGGTIVPRWMRVRRSSECMKDDPITLFVALSPQGTAQGELFLDDGHTFNYQTRQEFLLRRFSFSGNTLVSSSADPEGHFETPIWIERVVIIGAGKPAAVVLQTKGSPESRLSFQHDPETSVLVLRKPGINVASDWSIHLR

These are yes or no findings as the source states them, for the method shown. In cells and extracts the contact can be indirect. Here binding means that the protein was enriched with, or labelled near, the bait; the list need not be complete. Sequences can lack the tags named with a protein.

This assay deals with Carboxy-terminally Halo-tagged UL97 (pFC14a-HA-UL97 WT) (human cytomegalovirus (HCMV)) (UniProt P16788). Description: affinity purification with mass spectrometry; C-terminally Halo-tagged UL97 or Halo alone transiently expressed in HEK-293T; lysate on HaloLink beads, 1 h bead incubation; eluted with TEV protease; LC-MS/MS (Orbitrap Elite); two biological replicates.
As for “14-3-3 protein beta/alpha, endogenous (from UniProt P31946 1-246)”, the binding result is “binds”.
As to “14-3-3 ε, endogenous (from UniProt P62258 1-255)”, the binding result is on record as “binds”.
With Basigin (from UniProt P35613 22-385), the binding result was “binds”.
On to “Cell division cycle protein 20 homolog (from UniProt Q12834 1-499)”, for which the binding entry was “binds”.
Then Cyclin-A2 (from UniProt P20248 1-432), with “binds”; and “DnaJ homolog subfamily A member 1 (from UniProt P31689 1-397)”, with “binds”.
Regarding “DnaJ homolog subfamily A member 2 (from UniProt O60884 1-412)”, the binding result is reported as “binds”.
Regarding “DnaJ homolog subfamily B member 11 (from UniProt Q9UBS4 23-358)”, the binding result was “binds”.
Regarding “E3 ubiquitin-protein ligase CHIP (from UniProt Q9UNE7 1-303)”, the binding entry is given as “binds”.
As to “Elongation factor 1-gamma (from UniProt P26641 1-437)”, the binding entry was “binds”.
“Eukaryotic initiation factor 4A-I (from UniProt P60842 1-406)”: the binding result is “binds”.
Consider HSP90AA1 (from UniProt P07900 1-732), for which the binding result is “binds”.
In the case of “Heat shock 70 kDa protein 6 (from UniProt P17066 1-643)”, the binding result is “binds”.
For “Heat shock protein 105 kDa (from UniProt Q92598 1-858)”, the binding result was “binds”.
For the molecule “MAP/microtubule affinity-regulating kinase 3 (from UniProt P27448 1-753)”, the binding result is reported as “binds”.
Consider “Myosin light polypeptide 6 (from UniProt P60660 1-151)”, for which the binding entry is on record as “binds”.
The value for “Nuclear mitotic apparatus protein 1 (from UniProt Q14980 1-2115)” was “binds”.
Consider “Phosphatidylethanolamine-binding protein 1 (from UniProt P30086 1-187)”, for which the binding entry is listed as “binds”.
Take “Phosphoglycerate mutase 1 (from UniProt P18669 1-254)”: the binding result is on record as “binds”.
With “Probable ATP-dependent RNA helicase DDX17 (from UniProt Q92841 1-729)”, the binding result was “binds”.
Turning to “Probable ubiquitin carboxyl-terminal hydrolase FAF-X (from UniProt Q93008 1-2554)”, the binding result is listed as “binds”.
As to Profilin-1 (from UniProt P07737 1-140), the binding result is given as “binds”.
Then “Protein disulfide-isomerase A3 (from UniProt P30101 25-505)”, with “binds”.
As to “Serine/threonine-protein kinase MARK2 (from UniProt Q7KZI7 1-788)”, the binding entry was “binds”.
Turning to “Serine/threonine-protein phosphatase 2A 65 kDa regulatory subunit A alpha isoform (from UniProt P30153 1-589)”, the binding result is recorded as “binds”.
In the case of “Succinate dehydrogenase [ubiquinone] flavoprotein subunit, mitochondrial (from UniProt P31040 43-664)”, the binding entry was “binds”.
Then “T-complex protein 1 subunit eta (from UniProt Q99832 1-543)”, with “binds”; and TUBA1B (from UniProt P68363 1-451), with “binds”; and “Transcription intermediary factor 1-beta (from UniProt Q13263 1-835)”, with “binds”.
As to “Transitional endoplasmic reticulum ATPase (from UniProt P55072 1-806)”, the binding result is listed as “binds”.
Regarding B1, the binding result was “binds”.
For the molecule B2, the binding result is given as “binds”.
Regarding B3, the binding entry is on record as “binds”.
Take B4: the binding result is listed as “binds”.
For the molecule B5, the binding result is on record as “binds”.
For B6, the binding result was “binds”.
As to B7, the binding entry was “binds”.
